{"source": "paper PMC4314665", "about": "“Diversity of two-component systems: insights into the signal transduction mechanism by the Staphylococcus aureus two-component system GraSR” (F1000Research, 2014)", "molecular_target": "GST (glutathione S-transferase alone)", "test": "pull-down; GST-fused bait immobilised on glutathione-sepharose resin in 1 x PBS; prey added at bait:prey ratios of about 1:1 to 1:2, 30 min at room temperature; five to seven washes; elution with 10 mM reduced glutathione in 50 mM Tris pH 8.0; SDS-PAGE; both purified", "note": "No constants are given. Whether binding was seen depends on the method and setting. Where a sequence is shown, tags or fusion partners need not be part of it.", "data": [{"binder": "GraX, auxiliary protein (tagless) (natural protein, Auxiliary protein GraX, S. aureus strain Mu50, full length graX gene; Cloned in pET26b between NdeI and HindIII; Dimers seen by SDS-PAGE without DTT; also called untagged GraX; source: E. coli BL21(DE3), purified (SP-Sepharose cation exchange), to 90%) MKPKVLLAGGTGYIGKYLSEVIENDAELFAISKYPDNKKTDDVEMTWIQCDIFHYEQVVAAMNQIDIAVFFIDPTKNSAKITQSSARDLTLIAADNFGRAAAINQVKKVIYIPGSRYDNETIERLGAYGTPVETTNLVFKRSLVNVELQVSKYDDVRSTMKVVLPKGWTLKNVVNHFIAWMGYTKGTFVKTEKSHDQFKIYIKNKVRPLAVFKIEETADGIITLILLSGSLVKKYTVNQGKLEFRLIKESAVVYIHLYDYIPRLFWPIYYFIQAPMQKMMIHGFEVDCRIKDFQSRLKSGENMKYTK", "values": [{"measurement": "binding", "result": "no binding"}]}]}
